These are yes or no findings as the source states them, for the method shown.
B1: anti-Trop-2 human chimeric antibody KM4590 (antibody, human IgG1, V domains shown)
VH: QVQLQQSGPELVRPGTSVRISCKASGYTFTIYWLGWVKQRPGHGLEWIGNIFPGSAYINYNEKFKGKATLTADTSSSTAYMQLSSLTSEDSAVYFCAREGSNSGYWGQGTTLTVSS
VL: DIVMTQSPSSLSVSAGEKVTMTCKSSQSLLNSGNQQNYLAWYQQKPGQPPKLLIYGASTRESGVPDRFTGSGSGTDFTLTINSVQAEDLAVYYCQSDHIYPYTFGGGTKLEIK
B2: cAR47A6.4.2, human IgG1 chimeric antibody of anti-Trop-2 mouse monoclonal antibody AR47A6.4.2 (antibody, V domains shown)
VH: QIQLVQSGPELKKPGETVKISCKASGYTFTNYGMNWVKQAPGKGLKWMGWINTKTGEPTYAEEFKGRFAFSLETSASTAYLQINNLKKEDTATYFCGRGGYGSSYWYFDVWGAGTTVTVSS
VL: DIVMTQSHKFMSTSVGDRVSITCKASQDVSIAVAWYQQKPGQSPKVLIYSASYRYTGVPDRFTGSGSGTDFTFTISRVQAEDLAVYYCQQHYITPLTFGAGTKLELK

How the values were obtained:
[1] = target: Mutant B, Trop-2 extracellular region lacking domain I and domain II, fused to FLAG tag and Fc (human); assay: Western blot, KM4590 as primary antibody, Mutant B in lane 3, non-reducing and reducing [a]
[2] = target: Mutant A, Trop-2 extracellular region lacking only domain I, fused to FLAG tag and Fc (human); assay: Western blot, KM4590 as primary antibody, Mutant A in lane 2 [a]
[3] = target: Mutant C, Trop-2 extracellular region lacking full length of domain I and domain II and part of domain III, fused to FLAG tag and Fc (human); assay: Western blot, cAR47A6.4.2 as primary antibody, Mutant C in lane 4, non-reducing and reducing [b]

Row | Binder | binding [1] | binding [2] | binding [3]
1 | B1 | no binding | no binding | –
2 | B2 | – | – | no binding

Reference: patent US20120237518A1
